Results are given in words; binding and its absence hold for the method and conditions named.
Target: OsMADS57 (rice (Oryza sativa)) (UniProt Q6Z6W2)
Assay: two-hybrid; yeast two-hybrid; OsMADS57 in pGBKT7, SLR1 in pGADT7; following the manufacturer's instructions (Clontech)

Protein sequences, listed by entry. Tags and fused reporters are not part of them.
UniProt Q6Z6W2: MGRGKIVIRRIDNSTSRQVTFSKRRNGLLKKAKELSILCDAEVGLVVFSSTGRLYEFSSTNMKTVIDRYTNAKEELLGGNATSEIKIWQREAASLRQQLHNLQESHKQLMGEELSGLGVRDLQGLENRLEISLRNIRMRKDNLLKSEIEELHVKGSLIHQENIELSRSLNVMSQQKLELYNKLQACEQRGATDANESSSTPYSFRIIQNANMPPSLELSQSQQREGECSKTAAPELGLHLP

B1: SLENDER1 (SLR1) (protein, UniProt Q7G7J6 1-625)
chain: MKREYQEAGGSSGGGSSADMGSCKDKVMAGAAGEEEDVDELLAALGYKVRSSDMADVAQKLEQLEMAMGMGGVSAPGAADDGFVSHLATDTVHYNPSDLSSWVESMLSELNAPLPPIPPAPPAARHASTSSTVTGGGGSGFFELPAAADSSSSTYALRPISLPVVATADPSAADSARDTKRMRTGGGSTSSSSSSSSSLGGGASRGSVVEAAPPATQGAAAANAPAVPVVVVDTQEAGIRLVHALLACAEAVQQENFAAAEALVKQIPTLAASQGGAMRKVAAYFGEALARRVYRFRPADSTLLDAAFADLLHAHFYESCPYLKFAHFTANQAILEAFAGCHRVHVVDFGIKQGMQWPALLQALALRPGGPPSFRLTGVGPPQPDETDALQQVGWKLAQFAHTIRVDFQYRGLVAATLADLEPFMLQPEGEADANEEPEVIAVNSVFELHRLLAQPGALEKVLGTVHAVRPRIVTVVEQEANHNSGSFLDRFTESLHYYSTMFDSLEGGSSGQAELSPPAAGGGGGTDQVMSEVYLGRQICNVVACEGAERTERHETLGQWRNRLGRAGFEPVHLGSNAYKQASTLLALFAGGDGYRVEEKEGCLTLGWHTRPLIATSAWRVAAA
In the case of B1, the binding is reported as “no binding”.

— publication PMC6538746, “Rice transcription factor OsMADS57 regulates plant height by modulating gibberellin catabolism”
